Results are given in words; binding and its absence hold for the method and conditions named. Binding seen in cells or lysates may run through a third protein. Some binding calls cover weakened binding; strength is not graded here.
Target: T1, TRBP (HIV1‐TAR RNA Binding Protein) (rat (endogenous in primary cortical neurons)) (UniProt Q3SWU0)
T1 sequence: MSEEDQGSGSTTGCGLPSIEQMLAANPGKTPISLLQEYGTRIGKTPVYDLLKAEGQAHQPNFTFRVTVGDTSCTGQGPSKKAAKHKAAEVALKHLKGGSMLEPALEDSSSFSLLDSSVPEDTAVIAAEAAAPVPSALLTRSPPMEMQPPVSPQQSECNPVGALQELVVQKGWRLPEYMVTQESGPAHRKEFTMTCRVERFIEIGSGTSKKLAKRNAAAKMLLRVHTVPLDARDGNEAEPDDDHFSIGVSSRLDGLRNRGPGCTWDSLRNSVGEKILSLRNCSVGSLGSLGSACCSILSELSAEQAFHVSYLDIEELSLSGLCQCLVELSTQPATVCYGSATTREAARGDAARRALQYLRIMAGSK
Test: co-IP; membrane fractions of 7 DIV rat cortical neurons isolated by sequential detergent extraction; IgG control or 2 and 5 ug monoclonal anti-TRBP antibody; immunoblot

The chains behind the UniProt entries cited, without tags or fusion partners.
UniProt Q9QZ81: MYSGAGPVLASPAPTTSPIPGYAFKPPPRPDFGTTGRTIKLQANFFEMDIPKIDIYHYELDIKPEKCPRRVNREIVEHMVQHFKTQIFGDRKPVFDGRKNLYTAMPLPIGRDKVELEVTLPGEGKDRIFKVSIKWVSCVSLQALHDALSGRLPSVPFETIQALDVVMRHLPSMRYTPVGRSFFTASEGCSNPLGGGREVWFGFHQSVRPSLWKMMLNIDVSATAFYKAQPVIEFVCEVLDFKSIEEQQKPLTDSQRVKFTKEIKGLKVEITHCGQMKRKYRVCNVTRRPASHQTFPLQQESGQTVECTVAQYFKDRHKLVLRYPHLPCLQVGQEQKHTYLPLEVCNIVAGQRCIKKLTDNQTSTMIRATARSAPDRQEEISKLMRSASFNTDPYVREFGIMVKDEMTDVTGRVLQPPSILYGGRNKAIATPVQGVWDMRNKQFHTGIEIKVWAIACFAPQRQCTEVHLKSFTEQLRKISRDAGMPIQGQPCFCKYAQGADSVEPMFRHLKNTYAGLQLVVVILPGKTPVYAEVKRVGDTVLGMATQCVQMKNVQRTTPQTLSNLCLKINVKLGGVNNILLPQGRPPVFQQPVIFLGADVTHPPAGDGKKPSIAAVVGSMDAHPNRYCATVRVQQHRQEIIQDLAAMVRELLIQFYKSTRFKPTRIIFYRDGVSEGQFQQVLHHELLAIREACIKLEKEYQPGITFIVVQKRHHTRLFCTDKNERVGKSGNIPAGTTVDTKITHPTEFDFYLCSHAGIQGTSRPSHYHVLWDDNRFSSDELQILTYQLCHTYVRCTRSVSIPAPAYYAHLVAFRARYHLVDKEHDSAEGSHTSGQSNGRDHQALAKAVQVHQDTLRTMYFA

Ago2 (from UniProt Q9QZ81 1-860)
binding: binds
